Reference: paper PMC13598120
Positions count from the first letter of the chain named. Results are given in words; binding and its absence hold for the method and conditions named. In cells and extracts the contact can be indirect. For some assays here: A result given as binding can be weak or reduced; the word gives no strength. Sequences can lack the tags named with a protein.

By UniProt entry, the sequences of proteins in these tests, tags left out. Where a name states a change or a piece, a line headed by the entry shows the natural chain unless it says otherwise.
UniProt P61956: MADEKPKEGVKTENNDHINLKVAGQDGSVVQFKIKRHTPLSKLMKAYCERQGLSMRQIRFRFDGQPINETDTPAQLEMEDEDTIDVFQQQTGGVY

Legend:
[1] = molecular target: T1, Flag-tagged GNL3 (Flag-GNL3), wild type (human) (UniProt Q9BVP2); test: co-IP; anti-Flag (M2) agarose beads, 4 C, 4 h, on lysates of transfected U2OS cells; NP40 lysis buffer (50 mM Tris-HCl pH 8.0, 0.5% NP-40, 1 mM EDTA, 150 mM NaCl) with 20 mM NEM and 5 mM IAA; DMSO or 20 uM ETO; USP36 siRNA in one experiment; immunoblot
T1 sequence: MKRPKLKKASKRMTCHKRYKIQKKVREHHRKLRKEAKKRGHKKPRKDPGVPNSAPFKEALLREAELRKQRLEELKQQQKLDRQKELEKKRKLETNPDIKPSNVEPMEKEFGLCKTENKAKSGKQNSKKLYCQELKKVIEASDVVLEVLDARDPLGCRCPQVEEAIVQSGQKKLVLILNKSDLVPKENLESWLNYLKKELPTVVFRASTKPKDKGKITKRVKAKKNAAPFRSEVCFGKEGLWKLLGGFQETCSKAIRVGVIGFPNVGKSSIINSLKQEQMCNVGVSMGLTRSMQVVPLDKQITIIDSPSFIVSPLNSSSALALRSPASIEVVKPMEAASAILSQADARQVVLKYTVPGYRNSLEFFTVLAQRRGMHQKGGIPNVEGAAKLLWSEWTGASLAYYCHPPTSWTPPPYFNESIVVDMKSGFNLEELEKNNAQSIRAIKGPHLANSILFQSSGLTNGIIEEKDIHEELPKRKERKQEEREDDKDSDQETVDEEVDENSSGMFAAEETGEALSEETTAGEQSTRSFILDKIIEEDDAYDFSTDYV

[2] = molecular target: T2, Flag-tagged GNL3 SIM mutant (GNL3^SIMm) (human) (UniProt Q9BVP2); test: as above
T2 sequence: T1 sequence with V144A, L145A, V147A

## SUMO2, endogenous (from UniProt P61956)
[1]
  binding: binds
[2]
  binding: no binding
